Assay results: publication PMC7231995

T1: YqgP-sfGFP (functional fusion of Bacillus subtilis rhomboid protease YqgP with sfGFP) (Bacillus subtilis) (UniProt P54493)
T1 sequence: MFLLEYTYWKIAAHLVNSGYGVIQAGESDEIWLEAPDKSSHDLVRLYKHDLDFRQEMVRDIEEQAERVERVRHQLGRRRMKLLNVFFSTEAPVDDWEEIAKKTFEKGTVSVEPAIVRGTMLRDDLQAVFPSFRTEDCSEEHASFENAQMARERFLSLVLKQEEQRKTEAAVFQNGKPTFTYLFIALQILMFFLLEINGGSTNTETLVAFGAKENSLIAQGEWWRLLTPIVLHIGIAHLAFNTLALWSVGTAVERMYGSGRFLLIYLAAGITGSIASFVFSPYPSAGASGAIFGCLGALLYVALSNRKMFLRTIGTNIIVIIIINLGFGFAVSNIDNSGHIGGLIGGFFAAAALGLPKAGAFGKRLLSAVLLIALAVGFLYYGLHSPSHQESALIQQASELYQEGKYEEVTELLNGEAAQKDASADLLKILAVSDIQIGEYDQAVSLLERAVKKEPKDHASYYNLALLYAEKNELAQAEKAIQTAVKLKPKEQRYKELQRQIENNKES

T2: YqgP.S288A-sfGFP (catalytically dead YqgP fused with sfGFP) (Bacillus subtilis) (UniProt P54493)
T2 sequence: T1 sequence with S288A

B1: MgtE, high-affinity magnesium transporter (protein, UniProt O34442 1-451)
chain: MVQNMTYDELILRIIILLRDGKIRDFRSVIDELQPYDMAFIFKEMPEKHRARYLSYLTVDDITDMIGELEREFQLVVLNKVGKTKATLAMNKMDNDDLAQLLEEMDEELKEQLLSSMEASESKAVQLLMNYPADSAGRMMTNRYVWIPQHYTVKDAVVKLKSFAEIAESINYLYVINESKQLVGVLSYRDLILGEPEEKVQDLMFTRVISADALQDQEEVARLIERYDFLAIPVVEENNVLVGIVTVDDIIDVVIREADEDYEKFAASGKDITFDTKAYVAAYRRLPWLILLLFIGLISGSIISYFEDALKQVVALAFFMPMVSGMTGNTGTQSLAVVIRGLSKEEMNKKTIVRLIFREFRTSIFIGAVCSVLIAIVSIIWQGNALLGFVVASSLFLTLIIGTMSGTIIPIILHKLKVDPAIASGPLITTLNDILSLLIYFGIATAFIHSL
B2: ATPase subunit F (protein, UniProt P37814 1-170)
chain: MSQLPLELGLSFNGGDILFQLLAMLILLALLKKYALGPLLNIMKQREDHIAGEITSAEEKNKEAQQLIEEQRVLLKEARQESQTLIENAKKLGEKQKEEIIQAARAESERLKEAARTEIVKEKEQAVSALREQVASLSVMIASKVIEKELDEQAQEKLIQDYLKEVGESR

How the values were obtained:
[1] = target: T1, YqgP-sfGFP (functional fusion of Bacillus subtilis rhomboid protease YqgP with sfGFP) (Bacillus subtilis); test: affinity purification with mass spectrometry; YqgP-sfGFP baits captured on anti-GFP antibody resin (Chromotek) from B. subtilis membranes solubilised with 1% NP-40, 3 h at 4°C; label-free NanoLC-MS/MS; control: wild-type strain BTM2 without bait
[2] = target: T2, YqgP.S288A-sfGFP (catalytically dead YqgP fused with sfGFP) (Bacillus subtilis); test: as above

Binder	binding [1]	binding [2]
B1	binds	binds
B2	binds	binds

Residue numbers refer to the chain shown, from its start. Results are given in words; binding and its absence hold for the method and conditions named. In cells and extracts the contact can be indirect. A yes stands for co-enrichment or nearness to the bait. Other partners may have been found. Sequences can lack the tags named with a protein.
